Laboratory results taken from PubChem BioAssay AID540335 (Broad Institute, 2011).
In all, about 1,300 compounds went through this assay and about 270 (21%) were called active.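 How the source made its calls: active means dose-dependent rise or fall in viability, either side of zero, with half-maximal concentration at or below a set limit; inconclusive means flat curve at 30 to 70% viability loss, or poor fit; inactive means flat within 30% either way, or potency beyond limit.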 Some of the results follow. Entries with a potency or affinity are not part of this list.

Experiment: A375 melanoma cell viability reduction, dose response, counter-screen for MITF modulator project, cherry-pick samples, set 2 (AID 540335);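 further: A375 human melanoma cells which do not depend on MITF; 0% = median of neutral control wells and 100% = double that signal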
Conditions: CellTiter-Glo ATP luminescence, 24 h; at 35 µM (top of the series)

| SMILES | activity change, negative = decreased viability |
| --- | --- |
| Cc1cc(C(=O)Nc2ccc([N+](=O)[O-])cn2)cs1 | inactive: -0.268% |
| Nc1ccccc1SC1CC(=O)N(c2ccc3c(c2)OCCO3)C1=O (stereo not drawn) | inactive: 6.18% |
| CCCOCc1ccc(O)c2ncccc12 | inactive: -26.4% |
| ClC1(Cl)CC1CSc1nnc(-c2ccncc2)o1 (stereo not drawn) | inactive: 11.6% |
| CC(C)CC(=O)NC(c1cccs1)c1ccc2cccnc2c1O (stereo not drawn) | inactive: -35.5% |
| Cc1cc(Br)ccc1NC(=O)CNC(=O)Cn1ncc(Cl)c(Cl)c1=O | inactive: -5.62% |
| CCOc1ccc(C(=O)Nc2cccc(C(=O)O)c2C)cc1Cl | inactive: -2.49% |
| CCOc1ccc(NC(=O)c2ccc3snnc3c2)cc1 | inactive: -3.32% |
| CC(=O)Nc1ccc(-c2nc3ccccc3o2)cc1 | inactive: 8.49% |
| COc1cc(C2C(C#N)=C(N)Oc3cc4c(cc32)OCO4)cc(OC)c1OC (stereo not drawn) | inactive: 8.17% |
| O=C(/C=C/c1ccc([N+](=O)[O-])s1)N1CCCCC1 | inactive: -9.74% |
| CC1=NOC(=O)/C1=C\c1ccc(-c2cccc(Cl)c2)o1 | inactive: -5.17% |
| COC(=O)CCS(=O)(=O)c1nc(-c2ccccc2)cc(C(F)(F)F)n1 | inactive: 47.7% |
| O=C(Nc1nc(-c2ccccn2)cs1)c1ccccc1-n1cnnn1 | inactive: -39.2% |
| CN(C)c1cc[n+](CC(=O)c2ccc(-c3ccccc3)cc2)cc1 | inactive: -14.8% |
| C=Cc1ncc(OC)c2c1[nH]c1ccccc12 | inactive: 14.5% |
| Cc1ccc(NC(=O)c2ccccc2)cc1 | inactive: 3.62% |
| CC(C)(C)c1ccc(C(=O)Nc2ccc(CC(=O)O)cc2)o1 | inactive: -10.4% |
| O=C(C#Cc1ccccc1)c1cccc([N+](=O)[O-])c1 | inactive: 3.14% |
| O=C(Cn1ncc(Cl)c(Cl)c1=O)N1CCOCC1 | inactive: 38.5% |
| O=C(Nc1ccc(Cl)cc1)N1CC=CCC1 | inactive: 6.04% |
| CCc1ccc(NC2=CC(=O)C(=O)c3ccccc32)cc1 | inactive: -32.6% |
| Cc1nc(C)c(C(=O)N/N=C/c2cc(Br)ccc2O)s1 | inactive: -27.5% |
| COc1ccc(NC(=O)CCC(=O)N/N=C/c2ccc([N+](=O)[O-])s2)cc1 | inactive: -23.2% |
| O=C(NC1CCCCCC1)c1cc2ccccc2oc1=O | inactive: -11.8% |

| SMILES | activity change, negative = decreased viability |
| --- | --- |
| CCCN1C(=O)c2ccc(C(=O)Nc3cc(C)ccc3O)cc2C1=O | inactive: -0.588% |
| Cc1cc(NCCCn2ccnc2)n2ncc(-c3ccccc3)c2n1 | inactive: -8.96% |
| CCOc1cc(NC(=O)CCl)c(OCC)cc1NC(=O)CCl | inactive: -7.25% |
| Cc1cc(C(=O)O/N=C(\N)c2ccncc2)ccc1[N+](=O)[O-] | inactive: 5.55% |
| CC(C)=CCc1c(O)ccc2c1OC(c1ccc(O)c(O)c1)CC2=O (stereo not drawn) | inactive: 3.17% |
| CCC(=O)Nc1cc(C(=O)OCC(=O)c2ccccc2Cl)ccc1C | inactive: 9.78% |
| CCOC(=O)c1sc(NC(=O)Nc2ccc(Cl)cc2)nc1C | inactive: 6.69% |
| CCOc1cc(/C=C\[N+](=O)[O-])ccc1OCC(=O)N1CCOCC1 | inactive: -14.2% |
| COc1ccccc1NC(=O)c1cnc(SCC(=O)NCC2CCCO2)n(C)c1=O (stereo not drawn) | inactive: 0.027% |
| O=C(Cn1nnc(-c2ccccc2Cl)n1)N1CCCCC1 | inactive: 1.74% |
| Cc1cc(NC(=O)c2ccc(Cl)cc2Cl)no1 | inactive: 8.99% |
| Clc1nccnc1N/N=C/c1ccc(Br)cc1 | inactive: -29.2% |
| O=C1c2ccccc2C(=O)N1CCOc1ccccc1 | inactive: -1.42% |
| CN1C/C(=C/c2cccnc2)C(=O)/C(=C/c2cccnc2)C1 | inactive: 45.4% |
| CCN(CC)S(=O)(=O)c1cccc(C(=O)N/N=C(\C)c2ccc(O)cc2O)c1 | inactive: -32.2% |
| OCCNc1c2ccccc2nc2c(F)c(F)c(F)c(F)c12 | inactive: -3.67% |
| COc1cccc(C(=O)N/N=C(/c2ccccc2)c2ccccn2)c1 | inactive: -35.3% |
| COc1ccc(-c2noc(-c3cccs3)n2)cc1OC | inactive: -0.394% |
| S=c1[nH]nc(-c2ccco2)n1/N=C/C(Cl)=C/c1ccccc1 | inactive: 8.32% |
| COc1cc(/C=N/N=C(N)N)ccc1OCc1ccc(Cl)cc1 | inactive: -96.4% |
| CNC(=O)COC(=O)c1ccccc1C(=O)c1ccc(Cl)c([N+](=O)[O-])c1 | inactive: 50.1% |
| O=C(Nc1ccc(F)c(Cl)c1)c1ccc2c(c1)OCO2 | inactive: 7% |
| COC(=O)[C@@H](C)NC(=O)c1ccc2oc(CCc3ccccc3)nc2c1 | inactive: 1.95% |
| Nc1ccc2c(c1)OC1(CCCC1)O2 | inactive: -5.61% |
| Cc1cc(C)c2c(N)c(C(=O)N/N=C/c3cccnc3)sc2n1 | inactive: 11.6% |

| SMILES | activity change, negative = decreased viability |
| --- | --- |
| O=[N+]([O-])c1ccc(/C=N/Nc2ccnc3cc(Cl)ccc23)o1 | inactive: -13.7% |
| NC(=O)C1CCN(C2=C(NS(=O)(=O)c3ccc(Br)cc3)C(=O)c3ccccc3C2=O)CC1 | inactive: -10.2% |
| COc1ccccc1C(=O)Nc1nc(-c2ccc(S(=O)(=O)N3CCOCC3)cc2)cs1 | inactive: -9.48% |
| COc1ccc(NC(=O)Nc2ccc(F)c(F)c2)c(OC)c1 | inactive: 16.1% |
| Cc1ccc(C(=O)Nc2nc3ccc(Cl)cc3s2)o1 | inactive: -6.8% |
| CC(=O)N/C(N)=N/c1nc(=O)c2ccccc2s1 | inactive: 11.6% |
| CN=c1scc(-c2ccccc2F)n1/N=C/c1ccc[nH]1 | inactive: -31.4% |
| Cc1ccc(NCC(=O)N/N=C\c2ccc([N+](=O)[O-])o2)cc1 | inactive: -7.59% |
| O=C(/C=C/c1ccc([N+](=O)[O-])s1)N1CCCC1 | inactive: -14.7% |
| COc1ccc2oc(C(=O)Nc3ccc(S(=O)(=O)N(C)C4CCN(C)CC4)cc3)c(C)c2c1 | inactive: -26.3% |
| O=C(O)C1CCN(C(=O)OCc2ccccc2)CC1 | inactive: 3.83% |
| COc1cc2nc(SCC(=O)NCc3ccco3)n(Cc3ccc(Cl)cc3)c(=O)c2cc1OC | inactive: -6.5% |
| Cc1ccc(COc2ccc(C)nc2[N+](=O)[O-])cc1 | inactive: 0.699% |
| O=C(/C=C/c1ccc2c(c1)OCO2)N1CCCCC1 | inactive: -0.046% |
| Nc1c(-c2ccccc2)cnc2c(-c3ccccc3)cnn12 | inactive: -3.09% |
| CN(C)Cc1c(O)ccc2c1O/C(=C\C=C\c1ccccc1)C2=O | inactive: 3.6% |
| O=C(CCl)Nc1cccc(Oc2ccccc2)c1 | inactive: -29.8% |
| Cc1[nH]nc(Nc2ccc(Br)cc2)c1[N+](=O)[O-] | inactive: -6.02% |
| Cc1onc(-c2ccccc2)c1C(=O)N/N=C/c1ccc([N+](=O)[O-])s1 | inactive: -12.4% |
| C(=N\Nc1cc(N2CCCCC2)ncn1)/c1ccco1 | inactive: -3.19% |
| CC(C)C(CCNC1CCN(C)CC1)c1ccc(Cl)cc1 (stereo not drawn) | inactive: -4.07% |
| C/C(=C\c1ccccc1)C(=O)Nc1ccc(Cl)cn1 | inactive: 3.5% |
| Nc1nc2ccccc2n1/N=C/c1ccc([N+](=O)[O-])s1 | inactive: -21% |
| O=C(CCl)N(Cc1cc(=O)[nH]c2ccccc12)c1ccccc1 | inactive: 0.396% |
| CC(NC(=O)c1ccc([N+](=O)[O-])o1)C12CC3CC(CC(C3)C1)C2 (stereo not drawn) | inactive: 15.9% |

Copied from the list:
Under activity change, negative = decreased viability, `O=C(CCl)Nc1cccc(Oc2ccccc2)c1` shows inactive: -29.8%
Under activity change, negative = decreased viability, `CCOc1ccc(NC(=O)c2ccc3snnc3c2)cc1` shows inactive: -3.32%

Additional entries follow.

| SMILES | activity change, negative = decreased viability |
| --- | --- |
| CC1Cc2cc(-c3csc(N)n3)ccc2O1 (stereo not drawn) | inactive: 1.86% |
| Cc1ccc(-c2n[nH]c(=O)c3ccccc23)cc1S(=O)(=O)NCC1CCCO1 (stereo not drawn) | inactive: 8.17% |
| COc1ccc(C)cc1Nc1nc(N)c2cc(OC)c(OC)cc2n1 | inactive: -21.9% |
| Cc1ccc(NC(=O)c2cc(-c3cccs3)on2)cc1 | inactive: 7.41% |
| COc1ccc(C(=O)N/N=C/c2cc(Br)ccc2O)cc1OC | inactive: -39.9% |
| CN(C)c1ccc(/C=N\NC(=O)c2cccc3cc[nH]c23)cc1 | inactive: 6.58% |
| CC(C)CN=C(NS(=O)(=O)c1ccccc1)C(Cl)(Cl)Cl | inactive: -34.1% |
| O=[N+]([O-])c1cc(S(=O)(=O)N2CCCCCC2)ccc1F | inactive: -19.8% |
| CCN(CC)CCNC(=O)C1CCN(S(=O)(=O)c2c(C)noc2/C=C/c2ccccc2F)CC1 | inactive: -10.5% |
| COc1ccc(C(=O)/C=C/C(=O)N(CC(=O)NC2CCCCC2)Cc2ccccc2OC)c(O)c1 | inactive: -5.15% |
| O=C(Nc1ccc(Cl)c(S(=O)(=O)N2CCOCC2)c1)c1ccc(OCC2CCCO2)cc1 (stereo not drawn) | inactive: -37.8% |
| N#Cc1cnn2cc(CCN3CCOCC3)c(-c3ccc(F)cc3)nc12 | inactive: 7.97% |
| Nc1c(N(CCC2=CCCCC2)C(=O)COc2ccc(F)cc2)c(=O)[nH]c(=O)n1Cc1ccccc1 | inactive: -37.6% |
| Cn1nnnc1Sc1ncnc2scc(-c3ccc[nH]3)c12 | inactive: -11.1% |
| COc1ccc(C(=O)/C=C/C(=O)N(CC(=O)NC2CCCCC2)CC2CCCO2)c(O)c1 (stereo not drawn) | inactive: -33.5% |
| Cc1cc(C)c(C#N)c(SCc2nnc(-c3ccccc3)o2)n1 | inactive: 6.03% |
| O=C(Nc1cccnc1Cl)c1cc(-c2ccco2)on1 | inactive: 7.02% |
| CCOC(=O)CSC1=NC(=O)/C(=C\c2ccc(Cl)cc2)S1 | inactive: -2.2% |
| CCn1c(/C=C/N(C)c2ccccc2)[n+](CC)c2ccc(Cl)cc21 | inactive: -36.6% |
| COc1ccc(-n2ncc3c(N4CCCCC4)ncnc32)cc1 | inactive: -28.9% |
| COc1ccc(C(=O)/C=C/C(=O)N(CC(=O)NC2CCCCC2)Cc2ccccc2)c(O)c1 | inactive: -10.6% |
| C1CCC(C(CC2CCCCN2)C2CCCCC2)CC1 (stereo not drawn) | inactive: -92.8% |
| Cc1ccc2nc3cc([N+](=O)[O-])cc([N+](=O)[O-])c3cc2c1 | inactive: 3.06% |

Quoted at random: 3 compounds from above.

| SMILES | activity change, negative = decreased viability |
| --- | --- |
| Cc1ccc(NCC(=O)N/N=C\c2ccc([N+](=O)[O-])o2)cc1 | inactive: -7.59% |
| Clc1nccnc1N/N=C/c1ccc(Br)cc1 | inactive: -29.2% |
| CCC(=O)Nc1cc(C(=O)OCC(=O)c2ccccc2Cl)ccc1C | inactive: 9.78% |
